This note sets out measurements from US20170073659A1, “NOVEL LYSYL TRNA SYNTHETASE FRAGMENT AND MICROVESICLES COMPRISING SAME” (Medicinal Bioconvergence Research Center, priority 2014, published 2017).

The chains behind the UniProt entries cited, without tags or fusion partners. Where a name states a change or a piece, a line headed by the entry shows the natural chain unless it says otherwise.
UniProt O00560: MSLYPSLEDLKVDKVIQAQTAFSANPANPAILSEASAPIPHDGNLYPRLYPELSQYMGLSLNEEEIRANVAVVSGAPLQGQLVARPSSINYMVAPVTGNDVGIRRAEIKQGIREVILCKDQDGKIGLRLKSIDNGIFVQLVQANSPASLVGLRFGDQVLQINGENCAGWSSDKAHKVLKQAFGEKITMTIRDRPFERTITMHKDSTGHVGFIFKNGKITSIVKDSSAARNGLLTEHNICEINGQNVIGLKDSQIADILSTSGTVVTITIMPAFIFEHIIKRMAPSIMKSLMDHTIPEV
UniProt Q15046: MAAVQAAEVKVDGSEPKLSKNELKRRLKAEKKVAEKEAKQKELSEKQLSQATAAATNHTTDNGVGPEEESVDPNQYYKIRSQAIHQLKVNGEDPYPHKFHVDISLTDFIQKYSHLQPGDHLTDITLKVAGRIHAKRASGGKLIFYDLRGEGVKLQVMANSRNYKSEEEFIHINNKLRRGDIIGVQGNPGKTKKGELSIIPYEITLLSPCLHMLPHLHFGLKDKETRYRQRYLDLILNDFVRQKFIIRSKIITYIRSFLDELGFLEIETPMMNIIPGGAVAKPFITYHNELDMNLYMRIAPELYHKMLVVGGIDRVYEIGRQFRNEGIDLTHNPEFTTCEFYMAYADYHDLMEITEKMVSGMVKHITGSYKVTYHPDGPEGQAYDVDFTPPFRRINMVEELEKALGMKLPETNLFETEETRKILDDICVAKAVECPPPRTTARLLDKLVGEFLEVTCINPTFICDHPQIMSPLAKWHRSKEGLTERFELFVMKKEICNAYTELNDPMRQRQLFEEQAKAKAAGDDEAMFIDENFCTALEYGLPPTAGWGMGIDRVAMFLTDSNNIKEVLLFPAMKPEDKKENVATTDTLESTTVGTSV

Assay [1] deals with syntenin-1, endogenous in HCT116 cells (Homo sapiens (Human)) (UniProt O00560). The experiment in a line: anti-syntenin-1 immunoprecipitation from HCT116 lysate, anti-myc western blot (FIG. 3g). (In western blotting, separated proteins are transferred to a membrane and probed.)
Assay [2] shares this target. The experiment in a line: immunoprecipitation of syntenin-1, western blot with anti-KRS antibody, with or without Z-VAD-IETD (FIG. 3c).
Assay [3] has the same target. The assay is described as follows: immunoprecipitation of syntenin-1 from HCT116 lysate, western blot with anti-KRS antibody (FIG. 3b).
The target is the same in assay [4]. The experiment in a line: immunoprecipitation of syntenin-1 from HCT116 lysate, western blot with anti-KRS antibody (FIG. 3b legend).
The target is the same in assay [5]. The assay is described as follows: immunoprecipitation of syntenin-1, western blot with anti-KRS antibody (FIG. 3c legend).

Results are given in words; binding and its absence hold for the method and conditions named. Some binding calls cover weakened binding; strength is not graded here.

For “KRS deletion mutant (▴c5(1-592 a.a))-myc (from UniProt Q15046 1-592) (enzyme)”, in assay [1], the binding result was “no binding”.

For “lysyl tRNA synthetase (KRS), endogenous in HCT116 cells (from UniProt Q15046 2-597) (enzyme)”, the binding entry in assay [2], in assay [3], in assay [4] and in assay [5] was “binds” throughout.
